Among the targets are Kap95-3xHA (yeast) (UniProt Q06142); Rfa1-4KQ-3xFLAG (yeast) (UniProt P22336); Rfa1-4KR-3xFLAG (yeast) (UniProt P22336).
Holding throughout (experiment): co-IP; yeast lysates (cells with or without 0.1% MMS for 1 h), digested with UltraNuclease; anti-FLAG or anti-HA antibody, protein G-sepharose, 4°C; washed with IP lysis buffer supplemented with 140 mM NaCl; Western blot
For another assay, the target named is T1, Rtt105-3xHA (yeast) (UniProt P40063).
T1 sequence: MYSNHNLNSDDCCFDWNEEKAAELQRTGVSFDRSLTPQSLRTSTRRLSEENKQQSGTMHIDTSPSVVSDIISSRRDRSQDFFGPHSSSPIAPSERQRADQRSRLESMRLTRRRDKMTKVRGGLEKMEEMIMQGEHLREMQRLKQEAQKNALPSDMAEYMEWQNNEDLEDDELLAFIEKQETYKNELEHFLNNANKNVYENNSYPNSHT

Amino acid sequences for entries named in this document (tags omitted). A change or cut given only in a name is not applied to a line headed by its entry. Chains listed by the source or under a name are the forms on record and can include a tag or linker.
UniProt Q06142: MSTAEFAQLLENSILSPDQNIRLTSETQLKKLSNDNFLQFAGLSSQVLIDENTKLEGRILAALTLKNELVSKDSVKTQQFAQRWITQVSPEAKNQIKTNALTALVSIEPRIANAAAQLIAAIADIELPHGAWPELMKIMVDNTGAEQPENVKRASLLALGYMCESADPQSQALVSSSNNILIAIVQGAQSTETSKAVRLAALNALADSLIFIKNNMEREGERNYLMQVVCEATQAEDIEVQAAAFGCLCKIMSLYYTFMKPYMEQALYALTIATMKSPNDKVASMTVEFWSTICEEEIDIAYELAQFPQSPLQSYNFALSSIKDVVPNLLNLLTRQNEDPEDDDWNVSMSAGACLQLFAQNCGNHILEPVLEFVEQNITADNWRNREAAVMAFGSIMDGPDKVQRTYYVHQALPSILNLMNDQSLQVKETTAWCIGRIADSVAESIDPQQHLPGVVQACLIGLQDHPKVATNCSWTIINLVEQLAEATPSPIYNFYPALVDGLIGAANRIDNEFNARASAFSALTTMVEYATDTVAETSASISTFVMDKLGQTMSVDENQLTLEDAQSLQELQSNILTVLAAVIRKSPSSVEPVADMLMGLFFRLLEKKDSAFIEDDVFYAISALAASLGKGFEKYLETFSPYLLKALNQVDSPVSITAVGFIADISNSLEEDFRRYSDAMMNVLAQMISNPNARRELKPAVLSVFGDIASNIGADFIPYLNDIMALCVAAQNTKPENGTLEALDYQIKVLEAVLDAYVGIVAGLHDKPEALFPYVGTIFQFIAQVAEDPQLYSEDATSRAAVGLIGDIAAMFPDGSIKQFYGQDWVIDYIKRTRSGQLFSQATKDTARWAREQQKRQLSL
UniProt P22336: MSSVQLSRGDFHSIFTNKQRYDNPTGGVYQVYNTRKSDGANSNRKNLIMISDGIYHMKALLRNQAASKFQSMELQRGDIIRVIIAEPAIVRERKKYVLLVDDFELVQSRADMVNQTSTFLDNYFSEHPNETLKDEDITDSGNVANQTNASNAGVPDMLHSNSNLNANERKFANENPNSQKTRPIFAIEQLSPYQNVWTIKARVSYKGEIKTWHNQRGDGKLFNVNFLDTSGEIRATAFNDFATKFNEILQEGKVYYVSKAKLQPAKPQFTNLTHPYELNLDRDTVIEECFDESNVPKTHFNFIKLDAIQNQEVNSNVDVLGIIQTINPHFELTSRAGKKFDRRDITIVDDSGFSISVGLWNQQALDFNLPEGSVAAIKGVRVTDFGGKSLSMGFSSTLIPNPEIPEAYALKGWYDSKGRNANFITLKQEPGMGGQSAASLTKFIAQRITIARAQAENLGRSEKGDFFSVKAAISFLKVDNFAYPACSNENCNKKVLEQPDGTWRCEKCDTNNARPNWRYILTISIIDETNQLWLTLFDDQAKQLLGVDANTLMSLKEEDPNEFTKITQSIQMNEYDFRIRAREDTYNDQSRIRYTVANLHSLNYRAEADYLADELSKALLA
Rfa1-4KQ-3xFLAG (P22336, form named): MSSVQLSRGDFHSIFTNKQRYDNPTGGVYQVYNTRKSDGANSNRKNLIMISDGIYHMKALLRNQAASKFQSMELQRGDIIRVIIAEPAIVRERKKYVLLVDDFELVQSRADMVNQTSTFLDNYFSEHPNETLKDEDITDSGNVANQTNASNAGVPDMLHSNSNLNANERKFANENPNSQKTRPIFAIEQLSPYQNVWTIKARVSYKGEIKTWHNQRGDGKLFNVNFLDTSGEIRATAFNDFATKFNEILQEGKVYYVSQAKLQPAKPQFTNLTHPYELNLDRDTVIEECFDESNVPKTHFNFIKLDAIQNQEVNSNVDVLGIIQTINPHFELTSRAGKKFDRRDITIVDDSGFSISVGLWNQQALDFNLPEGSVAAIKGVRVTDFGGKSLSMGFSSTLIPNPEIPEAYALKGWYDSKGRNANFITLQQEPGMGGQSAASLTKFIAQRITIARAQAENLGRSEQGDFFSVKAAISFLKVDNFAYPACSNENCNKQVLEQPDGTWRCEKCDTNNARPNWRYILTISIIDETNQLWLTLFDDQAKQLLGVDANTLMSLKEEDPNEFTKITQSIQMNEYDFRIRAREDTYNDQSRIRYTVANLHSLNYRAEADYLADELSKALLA
Rfa1-4KR-3xFLAG (P22336, form named): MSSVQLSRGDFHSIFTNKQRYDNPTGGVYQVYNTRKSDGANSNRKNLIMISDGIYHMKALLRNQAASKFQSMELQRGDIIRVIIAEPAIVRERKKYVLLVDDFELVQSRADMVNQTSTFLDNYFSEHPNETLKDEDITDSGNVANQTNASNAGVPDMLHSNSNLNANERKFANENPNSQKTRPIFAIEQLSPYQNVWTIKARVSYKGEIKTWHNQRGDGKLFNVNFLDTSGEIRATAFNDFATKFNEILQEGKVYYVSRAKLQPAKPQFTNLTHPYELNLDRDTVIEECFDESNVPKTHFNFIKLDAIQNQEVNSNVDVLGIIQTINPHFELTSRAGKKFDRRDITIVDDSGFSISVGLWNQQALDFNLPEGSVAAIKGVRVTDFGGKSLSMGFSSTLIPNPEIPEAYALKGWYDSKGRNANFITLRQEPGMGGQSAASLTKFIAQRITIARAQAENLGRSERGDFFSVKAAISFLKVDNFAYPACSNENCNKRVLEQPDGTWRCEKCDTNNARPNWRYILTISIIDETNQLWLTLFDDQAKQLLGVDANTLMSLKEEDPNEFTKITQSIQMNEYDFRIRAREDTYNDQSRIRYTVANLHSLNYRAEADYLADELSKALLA
UniProt P26754: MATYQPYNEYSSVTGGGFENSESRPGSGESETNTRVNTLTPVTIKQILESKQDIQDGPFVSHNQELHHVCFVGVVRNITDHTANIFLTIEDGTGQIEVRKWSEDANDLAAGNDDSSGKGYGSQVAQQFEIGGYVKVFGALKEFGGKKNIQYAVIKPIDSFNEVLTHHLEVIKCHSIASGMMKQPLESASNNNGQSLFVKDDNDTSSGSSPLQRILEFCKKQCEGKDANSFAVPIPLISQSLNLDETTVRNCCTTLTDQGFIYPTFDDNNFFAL
UniProt P26755: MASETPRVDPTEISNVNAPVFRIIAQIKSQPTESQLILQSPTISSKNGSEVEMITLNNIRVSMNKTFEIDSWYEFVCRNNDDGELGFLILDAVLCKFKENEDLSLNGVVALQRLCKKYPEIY

The target of assay [1] is Rfa1-3xFLAG (wild type) (yeast) (UniProt P22336).

Results are given in words; binding and its absence hold for the method and conditions named. In cells and extracts the contact can be indirect. Some binding calls cover weakened binding; strength is not graded here.

For “Rfa1-3xFLAG (wild type) (from UniProt P22336 1-621)”, the binding entry with Kap95-3xHA (yeast) and with Rtt105-3xHA (yeast) was “binds” in each case.

In the case of “Rfa1-4KQ-3xFLAG (from UniProt P22336 1-621)”, the binding entry with Kap95-3xHA (yeast) and in the assay with Rtt105-3xHA (yeast) was “binds” in each case.

In the case of “Rfa1-4KR-3xFLAG (from UniProt P22336 1-621)”, the binding entry with Kap95-3xHA (yeast) and with Rtt105-3xHA (yeast) was “binds” in each case.

For the substance Rfa2 (from UniProt P26754 1-273), the binding entry (in assay [1]; with Rfa1-4KQ-3xFLAG (yeast); with Rfa1-4KR-3xFLAG (yeast)) was “binds” each time.

As for Rfa3 (from UniProt P26755 1-122), the binding result (in assay [1]; in the assay with Rfa1-4KQ-3xFLAG (yeast); with Rfa1-4KR-3xFLAG (yeast)) was “binds” in each case.
